These are yes or no findings as the source states them, for the method shown. For some assays here: Binding can be weak; no strength is given. For some assays here: In cells and extracts the contact can be indirect. For some assays here: Sequences can lack the tags named with a protein.
How the values were obtained:
[1] = target: Gal4 DNA-binding domain fusion of TCF4_(130-220) (human) (UniProt Q9NQB0); experiment: two-hybrid; yeast AH109 co-transformed with Gal4-BD bait and Gal4-AD prey plasmids; ADE2 reporter, growth on SC-Leu-Trp-Ade medium
[2] = target: Gal4 DNA-binding domain fusion of TCF4_(130-240) (human) (UniProt Q9NQB0); experiment: as above
[3] = target: Gal4 DNA-binding domain fusion of TCF4_(130-240) with the LVPQ motif deleted (human) (UniProt Q9NQB0); experiment: as above
[4] = target: Myc-tagged TCF4_(7-387) (human) (UniProt Q9NQB0); experiment: co-IP; whole-cell extracts of co-transfected HEK293 cells; IP with anti-Myc antibody and Protein G-Sepharose, 4 °C; washes with lysis buffer (140 mM NaCl, 1% Triton X-100, 1% Nonidet P-40, pH 7.4); Western blot with anti-HA
[5] = target: Myc-tagged full-length TCF4 (human, UniProt Q9NQB0-8 1-596); experiment: as above

Chains of the proteins cited; added tags and fusions are not shown. Lines headed by an entry give the natural chain unless they say otherwise; changes in a name come on top. Residues count along the entry.
UniProt Q9NQB0: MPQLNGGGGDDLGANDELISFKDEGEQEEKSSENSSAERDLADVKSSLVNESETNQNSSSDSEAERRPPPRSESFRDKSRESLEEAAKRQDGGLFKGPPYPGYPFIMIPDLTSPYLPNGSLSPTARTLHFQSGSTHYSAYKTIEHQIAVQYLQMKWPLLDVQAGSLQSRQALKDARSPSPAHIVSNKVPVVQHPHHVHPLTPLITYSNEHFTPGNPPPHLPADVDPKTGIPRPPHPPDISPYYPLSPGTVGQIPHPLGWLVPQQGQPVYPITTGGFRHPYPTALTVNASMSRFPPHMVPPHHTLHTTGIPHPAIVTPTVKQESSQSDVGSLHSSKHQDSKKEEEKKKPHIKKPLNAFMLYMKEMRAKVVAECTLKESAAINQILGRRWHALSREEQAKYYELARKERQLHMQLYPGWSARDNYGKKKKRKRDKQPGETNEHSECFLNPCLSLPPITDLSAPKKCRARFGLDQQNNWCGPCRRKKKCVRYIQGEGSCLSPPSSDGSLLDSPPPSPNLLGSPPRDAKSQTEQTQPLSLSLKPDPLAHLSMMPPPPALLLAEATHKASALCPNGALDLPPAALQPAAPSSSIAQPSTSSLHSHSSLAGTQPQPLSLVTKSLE
UniProt Q04727, residues 1-221: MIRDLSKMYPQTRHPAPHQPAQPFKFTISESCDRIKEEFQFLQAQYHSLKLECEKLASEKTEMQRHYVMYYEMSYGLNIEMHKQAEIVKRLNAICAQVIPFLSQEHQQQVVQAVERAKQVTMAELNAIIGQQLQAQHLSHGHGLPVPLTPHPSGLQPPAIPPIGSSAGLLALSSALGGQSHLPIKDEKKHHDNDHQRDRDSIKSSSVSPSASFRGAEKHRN

| binding [1] | binding [2] | binding [3] | binding [4] | binding [5] | Molecule |
| --- | --- | --- | --- | --- | --- |
| no binding | binds | binds |  |  | Gal4 activation domain fusion of GRG4-QGP (GRG4_(1-221), prey ACT-GRG4-QGP) (from UniProt Q04727 1-221) (domain or fragment) |
|  |  |  | binds | binds | HA-epitope-tagged GRG5/AES (natural protein, human, UniProt Q08117 1-197, looked up) MMFPQSRHSGSSHLPQQLKFTTSDSCDRIKDEFQLLQAQYHSLKLECDKLASEKSEMQRHYVMYYEMSYGLNIEMHKQAEIVKRLNGICAQVLPYLSQEHQQQVLGAIERAKQVTAPELNSIIRQQLQAHQLSQLQALALPLTPLPVGLQPPSLPAVSAGTGLLSLSALGSQAHLSKEDKNGHDGDTHQEDDGEKSD |
